{"source": "PubChem BioAssay AID1224827 (NIAID, 2016)", "test": "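Confirm genes whose knock-down changes LPS-driven TNF promoter activity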 (follow-up of hits)", "cell system": "RAW264.7 G9 mouse macrophage reporter clone", "reagent": "single siRNA against mouse genes, 100 nM siRNA", "timing": "siRNA for 2 days, then LPS about 16 h", "challenge": "bacterial lipopolysaccharide (LPS), 10 ng/ml, cells fixed after overnight (about 16 h) stimulation", "measured": "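TNF promoter reporter red fluorescence in nuclei, background subtracted, normalised per plate and to non-targeting control siRNA, as z-scores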", "direction": "TNF reporter z-score, mean: higher = stronger Tnf promoter reporter signal", "active means": "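Active siRNA: replicate-mean z-score of 2 or more, or -2 or less; no calls for control wells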", "note": "Shown is a random part of about 3,800 deposited reagents. Over the whole deposit, about 2,200 (57%) are marked active. 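Active means a strong reporter change in either direction; calls are per siRNA, not per gene; qiagen siRNAs gave weaker effects.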 Reagents against one gene are numbered here. Not all columns of the deposit are shown. No sequences are given here."}
{"gene symbol":"Klk1 (kallikrein 1)","siRNA no.":1,"TNF reporter z-score, mean":-1.88,"activity call":"inactive"}
{"gene symbol":"Klk1 (kallikrein 1)","siRNA no.":2,"TNF reporter z-score, mean":-4.07,"activity call":"active"}
{"gene symbol":"Klk1 (kallikrein 1)","siRNA no.":3,"TNF reporter z-score, mean":-5.14,"activity call":"active"}
{"gene symbol":"Klk1 (kallikrein 1)","siRNA no.":4,"TNF reporter z-score, mean":2.46,"activity call":"active"}
{"gene symbol":"Klk1 (kallikrein 1)","siRNA no.":5,"TNF reporter z-score, mean":1.61,"activity call":"inactive"}
{"gene symbol":"Klk1 (kallikrein 1)","siRNA no.":6,"TNF reporter z-score, mean":-4.03,"activity call":"active"}
{"gene symbol":"Grhl1 (grainyhead like transcription factor 1)","siRNA no.":1,"TNF reporter z-score, mean":-3.86,"activity call":"active"}
{"gene symbol":"Grhl1 (grainyhead like transcription factor 1)","siRNA no.":2,"TNF reporter z-score, mean":-3.92,"activity call":"active"}
{"gene symbol":"Grhl1 (grainyhead like transcription factor 1)","siRNA no.":3,"TNF reporter z-score, mean":-5.95,"activity call":"active"}
{"gene symbol":"Grhl1 (grainyhead like transcription factor 1)","siRNA no.":4,"TNF reporter z-score, mean":0.141,"activity call":"inactive"}
{"gene symbol":"Grhl1 (grainyhead like transcription factor 1)","siRNA no.":5,"TNF reporter z-score, mean":-0.603,"activity call":"inactive"}
{"gene symbol":"Grhl1 (grainyhead like transcription factor 1)","siRNA no.":6,"TNF reporter z-score, mean":-3.36,"activity call":"active"}
{"gene symbol":"Csn1s2a (casein alpha s2-like A)","siRNA no.":1,"TNF reporter z-score, mean":-3.73,"activity call":"active"}
{"gene symbol":"Csn1s2a (casein alpha s2-like A)","siRNA no.":2,"TNF reporter z-score, mean":-4.23,"activity call":"active"}
{"gene symbol":"Csn1s2a (casein alpha s2-like A)","siRNA no.":3,"TNF reporter z-score, mean":-4.45,"activity call":"active"}
{"gene symbol":"Csn1s2a (casein alpha s2-like A)","siRNA no.":4,"TNF reporter z-score, mean":3.44,"activity call":"active"}
{"gene symbol":"Csn1s2a (casein alpha s2-like A)","siRNA no.":5,"TNF reporter z-score, mean":1.3,"activity call":"inactive"}
{"gene symbol":"Csn1s2a (casein alpha s2-like A)","siRNA no.":6,"TNF reporter z-score, mean":1.32,"activity call":"inactive"}
{"gene symbol":"Eif3e (eukaryotic translation initiation factor 3, subunit E)","siRNA no.":1,"TNF reporter z-score, mean":2.05,"activity call":"active"}
{"gene symbol":"Eif3e (eukaryotic translation initiation factor 3, subunit E)","siRNA no.":2,"TNF reporter z-score, mean":2.51,"activity call":"active"}
{"gene symbol":"Eif3e (eukaryotic translation initiation factor 3, subunit E)","siRNA no.":3,"TNF reporter z-score, mean":-1.85,"activity call":"inactive"}
{"gene symbol":"Eif3e (eukaryotic translation initiation factor 3, subunit E)","siRNA no.":4,"TNF reporter z-score, mean":-0.0841,"activity call":"inactive"}
{"gene symbol":"Eif3e (eukaryotic translation initiation factor 3, subunit E)","siRNA no.":5,"TNF reporter z-score, mean":-0.717,"activity call":"inactive"}
{"gene symbol":"Eif3e (eukaryotic translation initiation factor 3, subunit E)","siRNA no.":6,"TNF reporter z-score, mean":-2.91,"activity call":"active"}
{"gene symbol":"Bach1","siRNA no.":1,"TNF reporter z-score, mean":0.87,"activity call":"inactive"}
{"gene symbol":"Bach1","siRNA no.":2,"TNF reporter z-score, mean":-1.25,"activity call":"inactive"}
{"gene symbol":"Bach1","siRNA no.":3,"TNF reporter z-score, mean":-5.05,"activity call":"active"}
{"gene symbol":"Bach1","siRNA no.":4,"TNF reporter z-score, mean":2.44,"activity call":"active"}
{"gene symbol":"Bach1","siRNA no.":5,"TNF reporter z-score, mean":1.86,"activity call":"inactive"}
{"gene symbol":"Bach1","siRNA no.":6,"TNF reporter z-score, mean":-3.65,"activity call":"active"}
{"gene symbol":"Cnpy3 (canopy FGF signaling regulator 3)","siRNA no.":1,"TNF reporter z-score, mean":0.208,"activity call":"inactive"}
{"gene symbol":"Cnpy3 (canopy FGF signaling regulator 3)","siRNA no.":2,"TNF reporter z-score, mean":-1.87,"activity call":"inactive"}
{"gene symbol":"Cnpy3 (canopy FGF signaling regulator 3)","siRNA no.":3,"TNF reporter z-score, mean":-3.24,"activity call":"active"}
{"gene symbol":"Cnpy3 (canopy FGF signaling regulator 3)","siRNA no.":4,"TNF reporter z-score, mean":3.74,"activity call":"active"}
{"gene symbol":"Cnpy3 (canopy FGF signaling regulator 3)","siRNA no.":5,"TNF reporter z-score, mean":0.462,"activity call":"inactive"}
{"gene symbol":"Cnpy3 (canopy FGF signaling regulator 3)","siRNA no.":6,"TNF reporter z-score, mean":-2.49,"activity call":"active"}
{"gene symbol":"Tnfrsf8 (tumor necrosis factor receptor superfamily, member 8)","siRNA no.":1,"TNF reporter z-score, mean":0.417,"activity call":"inactive"}
{"gene symbol":"Tnfrsf8 (tumor necrosis factor receptor superfamily, member 8)","siRNA no.":2,"TNF reporter z-score, mean":-1.42,"activity call":"inactive"}
{"gene symbol":"Tnfrsf8 (tumor necrosis factor receptor superfamily, member 8)","siRNA no.":3,"TNF reporter z-score, mean":-5.74,"activity call":"active"}
{"gene symbol":"Tnfrsf8 (tumor necrosis factor receptor superfamily, member 8)","siRNA no.":4,"TNF reporter z-score, mean":4.23,"activity call":"active"}
{"gene symbol":"Tnfrsf8 (tumor necrosis factor receptor superfamily, member 8)","siRNA no.":5,"TNF reporter z-score, mean":-0.0713,"activity call":"inactive"}
{"gene symbol":"Tnfrsf8 (tumor necrosis factor receptor superfamily, member 8)","siRNA no.":6,"TNF reporter z-score, mean":-3.21,"activity call":"active"}

Laid out differently: results already given
Csn1s2a (casein alpha s2-like A) #1 → TNF reporter z-score, mean = -3.73; activity call = active
Csn1s2a (casein alpha s2-like A) #2 → TNF reporter z-score, mean = -4.23; activity call = active
Csn1s2a (casein alpha s2-like A) #3 → TNF reporter z-score, mean = -4.45; activity call = active
Csn1s2a (casein alpha s2-like A) #4 → TNF reporter z-score, mean = 3.44; activity call = active
Csn1s2a (casein alpha s2-like A) #5 → TNF reporter z-score, mean = 1.3; activity call = inactive
